Results published in PMC12344264, “Mechanistic, in-silico and in vitro studies with nitrofurans reveal potent leishmanicidal activity and inhibition of trypanothione reductase” (International Journal for Parasitology: Drugs and Drug …, 2025).

Assays:
[1] = Cytotoxicity in primary splenocytes, alamarBlue, 72 h; format: cell-based; settings: mouse, uninfected mice
Description: (§1) For cytotoxicity tests, several mammalian cell lines were used. […] Primary cell cultures were also used to evaluate cytotoxicity. […] BMDM cells were differentiated for one week with 30 % […] from L929 cell line.
(§2) The in vitro cytotoxicity of the selected nitrofurans was evaluated in HepG2, RAW 264.7 cells, splenocytes and BMDM. In each well of a 96-well microtitre plate, 100 μL containing 10,000 HepG2 or RAW 264.7 cells were incubated for 24h at 37 °C and 5 % CO2 to allow the cells to settle. For primary cells, 100 μL containing 100,000 BMDM or 1,000,000 splenocytes were added to each well. Subsequently, […] of one-half serial dilutions of each compound diluted in DMEM (for HepG2 cells), RPMI medium (for RAW cells), splenocyte medium (for splenocytes) or BMDM medium supplemented with 10 % GM-CSF (for BMDM), were added to each well. The cytotoxic effect of the compounds was measured after 72 h of incubation at 37 °C and 5 % CO2. […] Fluorescence was measured using a Varioskan Lux spectrophotometer (ThermoFisher Scientific, Waltham, MA, USA). […]
(§3) All experiments were carried out in triplicate and included at least three technical replicates. […] The SI was calculated from the CC50/EC50 ratio.

S. typhimurium TA100 = assay: Ames mutagenicity test (Ames 384-ISO Well Test); settings: without S9 mix
[2] = Cytotoxicity, alamarBlue, 72 h; format: cell-based; settings: human, read-out: HepG2 cells CC50
Description: as §1, §2, §3

S. typhimurium TA98 = assay: Ames mutagenicity test (Ames 384-ISO Well Test); settings: without S9 mix

O=C1OCCN1/N=C/c1ccc([N+](=O)[O-])o1 [Furazolidone]
CC50 at 72 h [1]: 44.8 ± 3.93 µM | Mutagenic effect TA100 (S. typhimurium TA100; 0.025 μM): + (0.001) | Mutagenic effect TA100 (S. typhimurium TA100; 0.05 μM): + (0.001) | Mutagenic effect TA100 (S. typhimurium TA100; 0.1 μM): + (0.05) | Mutagenic effect TA100 (S. typhimurium TA100; 1.00 μM): - ^b | Mutagenic effect TA100 (S. typhimurium TA100; 10.0 μM): - ^b | CC50 at 72 h [2]: 42.5 ± 6.81 µM | Mutagenic effect TA98 (S. typhimurium TA98; 0.025 μM): + (0.01) | Mutagenic effect TA98 (S. typhimurium TA98; 0.05 μM): + (0.05) | Mutagenic effect TA98 (S. typhimurium TA98; 0.1 μM): + (0.05) | Mutagenic effect TA98 (S. typhimurium TA98; 1.00 μM): - ^b | Mutagenic effect TA98 (S. typhimurium TA98; 10.0 μM): - ^b
